Assay results taken from US20170355770A1 (ASKGENE PHARMA, published 2017).
Results are given in words; binding and its absence hold for the method and conditions named. Some binding calls cover weakened binding; strength is not graded here.

Experiments:
[1] = target: cynomolgus PD-L1-his (cynomolgus) (UniProt G7PSE7); test: ELISA, coated cynomolgus PD-L1-his
[2] = target: cynomolgus PD-L1-his (cynomolgus) (UniProt G7PSE7); test: ELISA on coated cynomolgus PD-L1-his, purified chimeric antibody [panel Cynomolgus PDL1-his ELISA]

binding [1] | binding [2] | Binder
binds | – | chimeric anti-PD-L1 antibody 115C1 (antibody, V domains shown) VH: CQSVKESEGGLFKPTDTLTLTCTVSGFSLSSVAVSWVRQAPGKGLEWIGTISYTGNTYYASWAKSRSTITRNTNENTVTLKMPSLTVADTATYFCAKEILYYGMDFWGPGTLVTVSS VL: DIVMTQTPSSVSAAVGGTVTINCQASQSISSYLAWYQQKPGQPPKLLIYGASNLESGVPSRFKGSGSGTDFTLTISDLECADAATYYCQSTYGSTSTSDYGNAFGGGTKVVVVR
binds | – | chimeric anti-PD-L1 antibody 111H2 (antibody, V domains shown, also called chimeric anti-PD-L1 111H2 antibody) VH: QEQLVESGGGLVQPGGTLKLSCKGSGFDLSSNAMCWVRQAPGKGLEWIGCIVYGNCYYASWVNGRFTISSDNAQSSVDLQLNSLTAADTATYFCARDPAGSSVYTGGFNIWGPGTLVTVSS VL: AIDMTQTPSPVSAAVGDTVTINCQASENIYSFLAWYQQKPGHSPKPLIYFASKLASGVPSRFKGSGSGTQFTLTISDVQCDDAATYYCQQTVSYKNADTAFGGGTKVVVVR
binds | binds | chimeric anti-PD-L1 antibody 116F3 (antibody, V domains shown) VH: CQSVKESEGGLFKPTDTLTLTCTVSGIDLSSISIGWVRQAPGNGLEWIGTISDSGSAYYASWAKSRSTITRNTNENTVTLKMTSLTAADTASYFCAKEILYYGMDLWGPGTLVTVSS VL: DVVMTQTPASVSGAVGGTVTIKCQASEDIESYLAWYQQKPGQPPKLLIYAASNLEPGVPSRFKGSRSGTEYTLTITDLECDDAATYHCQATYGSTSSSDYGNAFGGGTKVVVVR
binds | – | chimeric anti-PD-L1 antibody 110B4 (antibody, V domains shown) VH: CQSVKESEGGLFKPTDTLTLTCKVSGIDLSSISISWVRQAPGNGLEWIGVINSYGNTYYASWAKSRSTITRNTNENTVTLKMTSLTAADTATYFCAKEILYYGMDLWGPGTLVTVSS VL: DVVMTQTPASVEAAVGGTVTIKCQASQSISSYFSWYQQKPGQRPKLLIYDASNLESGVPSRFKGSRSGTEYTLTISDLEWDDAATYYCQCTYGSTSSSNYGNNFGGGTKVVVVR
binds | – | chimeric anti-PD-L1 antibody 115E2 (antibody, V domains shown) VH: CQSVKESEGGLFKPMDTLTLTCTVSGIDLGSVAISWVRQAPGKGLEWIGTIGSSGSAYYASWAKSRSTITRNTNLNTVTLKMTSLTAADTASYFCAKEILYYGMDRWGPGTLVTVSS VL: DVVMTQTPASVEASVGGTVTINCQASQSISSYLAWYQQKPGQPPKLLIYAASNLEPGVPSRFKGSGSGTEFTLTISDLECADAATYYCQATYGSTSSSDYGNAFGGGTKVVVVR
binds | binds | chimeric anti-PD-L1 antibody 113F1 (antibody, V domains shown) VH: CQSVKESEGGLFKPTDTLTLTCTVSGIDLSSIAISWVRQAPGNGLEWIGTINSYGSTYYASWAQSRSTITRNTNENTVTLKMTSLTAADTASYFCAKEILYYGMDVWGPGTLVTVSS VL: DVVMTQTPASVEAAVGGTVTIKCQASQSISSYLAWYQQKPGQPPKLLIYAASNLESGVPSRFKGSGSGTEYTLTISDLECDDAATYYCQSTYGTTSTSDYGNAFGGGTKVVVVR
binds | – | chimeric anti-PD-L1 antibody 110H8 (antibody, V domains shown) VH: CQSVKESEGGLFKPTDTLTLTCTVSGIDLSSVSISWVRQAPGNGLEWIGTIGASGSAYYASWAKRRSTITRNTNLNTVTLKMTSLTAADTASYFCAKEILYYGMDLWGPGTLVTVSS VL: DVVMTQTPASVEAAVGGTVTIKCQASQSISNYLAWYQQKPGQRPKLLIYAASNLEPGVPSRFKGSGSGTEYTLTITDLECDDAATYHCQCTYGSTSSSDYGNAFGGGTKVVVVR
